PubChem BioAssay AID493014 (National Center for Advancing Translational Sciences (NCATS), 2011)
The campaign covered roughly 340,000 compounds. About 170 (0.05%) were called active. This list was built around the results that the source calls inconclusive (neither active nor inactive); the mix of calls is not that of the screen. The call rests on the fitted dose curve; in most records, active means well fitted inhibition curve with a large enough effect in the signal ratio, with a control signal flat (not every such curve was filed as active); inconclusive means small, poorly fitted or top-dose-only effect, or effect the other way, or a change in a side signal; inactive means flat fitted curve, though single readings scatter; the % refers to the signal ratio. Where the call is inconclusive, the potency comes from a doubtful curve fit.
Potency means the concentration at half of the fitted maximal effect.

Assay: qHTS Assay to Find Inhibitors of Chronic Active B-Cell Receptor Signaling;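 on activity change, negative = inhibition: plate controls were basal doxycycline-induced cells for no effect and cells given 10 µM MG132 for full effect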
Conditions: ABC-DLBCL IkBa-CBG/CBR reporter, luminescence ratio (green luciferase fused to IkBa over red control in TMD8 lymphoma cells), 4 h; activity change, negative = inhibition: at 46.1 µM (top of the series) unless noted
Procedure, shortened: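 Concentration-response series (up to 46 uM) were applied to TMD8 dual-reporter cells for 4 h at 37C with doxycycline. Green/red ratio, after filter-overlap correction, defined %Activity; red signal alone was normalised to basal cells and zero luminescence.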
For `O=S(=O)(NC1CCCCCC1)c1ccc(Br)s1`, the activity change, negative = inhibition was inconclusive: -1.42%. For `COc1cccc(C2=CC(c3ccc(OC)c(OC)c3)NC(=S)N2)c1` (stereo not drawn), the Potency was inconclusive: 7.08 µM [falling, full curve, poor fit]. In the case of `Cc1cccc(C(=O)NC2CCN(C(=O)Nc3ccccc3C)CC2)c1`, the activity change, negative = inhibition is reported as inconclusive: 9.17%. With `Cc1csc(C2=C(O)CN(CCc3ccccc3)C2=N)n1` the activity change, negative = inhibition was inconclusive: 1.96%. For `COC(=O)c1ccc(-n2c(C)cc(C(=O)CCl)c2C)cc1`, the Potency was inconclusive: 35.5 µM [falling, single point]. For `COC(=O)c1cc(NS(=O)(=O)c2cc(Br)cc3c2N(C(C)=O)CC3)cc(C(=O)OC)c1`, the “activity change, negative = inhibition” value was inactive: -9.31%. For `COc1ccc(CNC(=O)c2ccc3ccccc3n2)cc1`, the “activity change, negative = inhibition” value was inactive: -9.89%. For `CCOc1ccc(Cc2noc3c2C(=O)CC(C)(C)C3)cc1OCC`, the activity change, negative = inhibition was inconclusive: 6.85%. For `Cc1cc(Cl)ccc1C1=CC(=O)C[C@H](c2ccc(F)cc2)C1`, the activity change, negative = inhibition was inconclusive: -2.83%. In the case of `O=C(Nc1ccc(Cl)cc1)N1CCCC(Cn2cccc2)C1` (stereo not drawn), the activity change, negative = inhibition is reported as inconclusive: 11.4%. In the case of `O=C(O)c1ccccc1-c1noc(-c2ccccc2F)n1`, the Potency is reported as inconclusive: 20.6 µM [falling, single point]. With `Cc1ccc2nc(NCCc3ccccc3)c3nncn3c2c1` the activity change, negative = inhibition was inconclusive: 9.88%. With `Cc1ccc2nc(N(CCCN(C)C)C(=O)c3cc(-c4cccs4)nc4ccccc34)sc2c1` the Potency was inconclusive: 25.1 µM [falling, partial curve, poor fit]. For `O=C1NC(=O)/C(=C\c2ccc(N3CCOCC3)o2)N1`, the “activity change, negative = inhibition” value was inactive: 3.83%. For `Cn1c2ccccc2c(=O)c2c(=O)n(C3CCCCC3)c(-c3cccs3)nc21`, the activity change, negative = inhibition was inconclusive: 4.5%. For `C/C(=N\N=C1\NC(=O)C(CC(=O)Nc2ccc(C)c(Cl)c2)S1)C(C)C` (stereo not drawn), the activity change, negative = inhibition was inconclusive: -0.0558%. For `Clc1ccc(Br)cc1-c1nc(-c2ccncc2)no1`, the activity change, negative = inhibition was inconclusive: -0.234%. For `O=C(NC12CC3CC(CC(C3)C1)C2)N1CCN(c2nc(-c3ccccc3)cs2)CC1`, the “activity change, negative = inhibition” value was inactive: 11.7%. In the case of `Cc1ccc2c(c1)C(=O)C(=O)N2Cc1ccc(C(F)(F)F)cc1`, the Potency is reported as inconclusive: 16.4 µM [falling, single point]. For `Cc1nn(C)c(NC(=O)c2ccccc2Cl)c1Cl`, the “activity change, negative = inhibition” value was inactive: 6.26%. For `CC(C)c1ccc(OCc2cccc(C(=O)N/N=C/c3cccnc3)c2)cc1`, the activity change, negative = inhibition was inconclusive: 4.56%. In the case of `CN(c1ccc(C(=O)Nc2ccc3c(c2)n(C)c(=O)n3C)cc1)S(C)(=O)=O`, the activity change, negative = inhibition is reported as inconclusive: 1.87%. For `Nc1cc(-c2ccccc2)nn1S(=O)(=O)c1ccc(Br)cc1`, the activity change, negative = inhibition was inconclusive: -3.72%.
